Data as given in patent US20040077542A1 (University of Texas, published 2004).
These are yes or no findings as the source states them, for the method shown. For part of these data: Binding seen in cells or lysates may run through a third protein. Some entries that bind do so weakly or less than the wild type.

By UniProt entry, the sequences of proteins in these tests, tags left out. Residues count along the entry.
GST-fusion protein of the second BIR (baculoviral IAP repeat) motif of XIAP (P98170, residues 124-240): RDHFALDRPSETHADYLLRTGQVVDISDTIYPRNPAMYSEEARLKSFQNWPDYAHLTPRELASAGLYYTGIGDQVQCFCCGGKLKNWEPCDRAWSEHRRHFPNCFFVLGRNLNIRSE
third BIR domain of XIAP (P98170, residues 241-356): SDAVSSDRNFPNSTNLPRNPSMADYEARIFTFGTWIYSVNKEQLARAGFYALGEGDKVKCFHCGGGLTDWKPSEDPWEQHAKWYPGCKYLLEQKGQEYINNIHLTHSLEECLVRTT

Assays:
[1] = target: GST-fusion protein of the second BIR (baculoviral IAP repeat) motif of XIAP (UniProt P98170); experiment: fluorescence polarization, rhodamine-labeled peptoid, GST/BIR fusion (Example 10)
[2] = target: GST-fusion protein of the second BIR (baculoviral IAP repeat) motif of XIAP (UniProt P98170); experiment: GST pull-down, radiolabeled peptide on GST-BIR2 glutathione resin (Example 9); IAP binding grade
third BIR domain of XIAP = third BIR domain of XIAP (UniProt P98170); experiment: in vitro IAP (BIR) binding, GST pull-down (Example 9)
[3] = target: GST-fusion protein of the second BIR (baculoviral IAP repeat) motif of XIAP (UniProt P98170); experiment: as above
biotinylated BIR domain = biotinylated BIR domain (UniProt P98170); experiment: solid phase binding, 33P-labeled peptoid, biotinylated BIR on avidin plate (Example 11)

Measured: binding

B1: Smac-5: NH2-AVPIA-COOH (peptide)
peptide: AVPIA
binds: all assays above

B2: Smac-6: NH2-AVPIAQ-COOH (peptide)
peptide: AVPIAQ
binds: all assays above

B3: Smac-7: NH2-AVPIAQK-COOH (peptide)
peptide: AVPIAQK
binds: all assays above

B4: Reaper-5: NH2-AVAFY-COOH (peptide)
peptide: AVAFY
binds: [2] | third BIR domain of XIAP | [3]

B5: Reaper-6: NH2-AVAFYI-COOH (peptide)
peptide: AVAFYI
binds: [2] | third BIR domain of XIAP | [3]

B6: Grim-5: NH2-AIAYF-COOH (peptide)
peptide: AIAYF
binds: [2] | third BIR domain of XIAP | [3]

B7: Hid-6: NH2-AVAFYL-COOH (peptide)
peptide: AVAFYL
binds: [2] | third BIR domain of XIAP | [3]
